Some of the results follow. Residues, ends and D or L forms follow the SMILES beside them. *: point of attachment. Cbz = O=C(OCc1ccccc1)*
Columns and labels:
Test in all cases: log2 fold change, soluble protein after heating vs DMSO (PISA); higher = thermal stabilisation; K562 cells, 10 uM, 30 min; active = over 0.2 and 3.5 SD of the protein, either way, in both replicates (recomputed)
erlotinib = compound: C#Cc1cccc(Nc2ncnc3cc(OCCOC)c(OCCOC)cc23)c1 [erlotinib]
Method in brief: (§1)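 Quantification of soluble protein used TMTpro 16plex LC-MS/MS, with channel sums equalised. Samples were the supernatant after 21,000xg for 90 min of pooled aliquots from K562 cells (2×10^6 cells/mL) treated with 10 μM compound for 30 min, heated for 3 min over 48°C-58°C, and extracted in PBS with 0.5% NP-40 at 4°C. Values, from duplicates, describe thermal stability against control samples on a log2 fold-change scale.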

Sequences of proteins named here, by UniProt entry; tags and fusion partners are left off. A change or cut given only in a name is not applied to a line headed by its entry.
UniProt P43115: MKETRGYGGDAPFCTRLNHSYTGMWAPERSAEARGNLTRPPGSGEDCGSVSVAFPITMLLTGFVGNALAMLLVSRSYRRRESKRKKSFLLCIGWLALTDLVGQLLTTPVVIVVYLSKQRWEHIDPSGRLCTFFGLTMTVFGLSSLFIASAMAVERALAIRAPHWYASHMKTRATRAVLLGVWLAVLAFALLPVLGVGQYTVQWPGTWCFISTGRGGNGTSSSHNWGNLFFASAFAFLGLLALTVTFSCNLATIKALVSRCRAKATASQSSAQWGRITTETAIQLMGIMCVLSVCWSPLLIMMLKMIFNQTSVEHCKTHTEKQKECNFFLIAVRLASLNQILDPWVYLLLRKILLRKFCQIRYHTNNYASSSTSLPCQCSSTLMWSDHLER
UniProt Q86Y79: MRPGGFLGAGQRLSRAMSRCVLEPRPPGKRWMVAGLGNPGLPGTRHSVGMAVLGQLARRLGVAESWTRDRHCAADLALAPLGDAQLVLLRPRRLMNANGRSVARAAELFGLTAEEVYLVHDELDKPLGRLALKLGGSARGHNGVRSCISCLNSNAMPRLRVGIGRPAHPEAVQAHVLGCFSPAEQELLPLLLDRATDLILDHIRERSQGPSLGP
UniProt Q9UHX1: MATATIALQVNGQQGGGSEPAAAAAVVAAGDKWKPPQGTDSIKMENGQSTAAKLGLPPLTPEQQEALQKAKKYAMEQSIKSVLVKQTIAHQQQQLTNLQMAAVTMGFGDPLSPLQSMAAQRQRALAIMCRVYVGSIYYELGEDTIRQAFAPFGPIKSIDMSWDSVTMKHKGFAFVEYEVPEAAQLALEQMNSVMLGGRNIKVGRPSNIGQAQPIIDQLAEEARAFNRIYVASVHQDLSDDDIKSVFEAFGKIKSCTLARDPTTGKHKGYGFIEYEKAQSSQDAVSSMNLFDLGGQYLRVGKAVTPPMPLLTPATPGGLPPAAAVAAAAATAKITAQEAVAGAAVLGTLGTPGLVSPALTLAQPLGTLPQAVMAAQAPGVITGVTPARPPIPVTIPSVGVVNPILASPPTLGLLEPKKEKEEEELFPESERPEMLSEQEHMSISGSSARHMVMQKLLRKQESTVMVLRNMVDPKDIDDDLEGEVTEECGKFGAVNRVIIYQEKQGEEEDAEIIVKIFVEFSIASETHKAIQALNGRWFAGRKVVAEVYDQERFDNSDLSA
UniProt Q9UJV8: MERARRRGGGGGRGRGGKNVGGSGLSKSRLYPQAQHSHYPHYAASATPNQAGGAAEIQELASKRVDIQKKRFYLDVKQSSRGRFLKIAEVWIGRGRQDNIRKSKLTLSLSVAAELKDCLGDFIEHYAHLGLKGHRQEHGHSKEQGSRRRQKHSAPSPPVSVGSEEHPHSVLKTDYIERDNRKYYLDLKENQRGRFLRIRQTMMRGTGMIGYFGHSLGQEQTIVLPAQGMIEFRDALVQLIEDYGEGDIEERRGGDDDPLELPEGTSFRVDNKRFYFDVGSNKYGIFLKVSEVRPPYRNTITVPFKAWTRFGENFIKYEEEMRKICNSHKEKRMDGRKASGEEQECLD
UniProt Q9BQI7: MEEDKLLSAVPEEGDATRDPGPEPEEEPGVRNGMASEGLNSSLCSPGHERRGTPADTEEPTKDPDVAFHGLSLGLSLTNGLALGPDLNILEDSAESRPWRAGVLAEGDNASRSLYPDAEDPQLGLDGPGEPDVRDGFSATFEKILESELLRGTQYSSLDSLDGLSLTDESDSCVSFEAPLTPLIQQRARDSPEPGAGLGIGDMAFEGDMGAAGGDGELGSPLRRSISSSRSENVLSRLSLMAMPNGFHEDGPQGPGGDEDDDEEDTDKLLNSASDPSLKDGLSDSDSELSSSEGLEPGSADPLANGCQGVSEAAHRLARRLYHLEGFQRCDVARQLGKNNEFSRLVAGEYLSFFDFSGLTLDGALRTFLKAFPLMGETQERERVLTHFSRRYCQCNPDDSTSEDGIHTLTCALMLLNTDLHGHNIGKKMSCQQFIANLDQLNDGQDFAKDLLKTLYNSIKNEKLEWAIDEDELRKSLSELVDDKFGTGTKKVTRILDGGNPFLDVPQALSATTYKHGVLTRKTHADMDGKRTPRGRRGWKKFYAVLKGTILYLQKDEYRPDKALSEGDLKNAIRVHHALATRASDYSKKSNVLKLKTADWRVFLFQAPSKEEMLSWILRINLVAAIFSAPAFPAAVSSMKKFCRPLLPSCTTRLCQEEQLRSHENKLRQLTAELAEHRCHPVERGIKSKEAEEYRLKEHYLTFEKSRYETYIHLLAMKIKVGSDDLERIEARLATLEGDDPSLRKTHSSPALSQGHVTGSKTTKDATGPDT
UniProt Q14671: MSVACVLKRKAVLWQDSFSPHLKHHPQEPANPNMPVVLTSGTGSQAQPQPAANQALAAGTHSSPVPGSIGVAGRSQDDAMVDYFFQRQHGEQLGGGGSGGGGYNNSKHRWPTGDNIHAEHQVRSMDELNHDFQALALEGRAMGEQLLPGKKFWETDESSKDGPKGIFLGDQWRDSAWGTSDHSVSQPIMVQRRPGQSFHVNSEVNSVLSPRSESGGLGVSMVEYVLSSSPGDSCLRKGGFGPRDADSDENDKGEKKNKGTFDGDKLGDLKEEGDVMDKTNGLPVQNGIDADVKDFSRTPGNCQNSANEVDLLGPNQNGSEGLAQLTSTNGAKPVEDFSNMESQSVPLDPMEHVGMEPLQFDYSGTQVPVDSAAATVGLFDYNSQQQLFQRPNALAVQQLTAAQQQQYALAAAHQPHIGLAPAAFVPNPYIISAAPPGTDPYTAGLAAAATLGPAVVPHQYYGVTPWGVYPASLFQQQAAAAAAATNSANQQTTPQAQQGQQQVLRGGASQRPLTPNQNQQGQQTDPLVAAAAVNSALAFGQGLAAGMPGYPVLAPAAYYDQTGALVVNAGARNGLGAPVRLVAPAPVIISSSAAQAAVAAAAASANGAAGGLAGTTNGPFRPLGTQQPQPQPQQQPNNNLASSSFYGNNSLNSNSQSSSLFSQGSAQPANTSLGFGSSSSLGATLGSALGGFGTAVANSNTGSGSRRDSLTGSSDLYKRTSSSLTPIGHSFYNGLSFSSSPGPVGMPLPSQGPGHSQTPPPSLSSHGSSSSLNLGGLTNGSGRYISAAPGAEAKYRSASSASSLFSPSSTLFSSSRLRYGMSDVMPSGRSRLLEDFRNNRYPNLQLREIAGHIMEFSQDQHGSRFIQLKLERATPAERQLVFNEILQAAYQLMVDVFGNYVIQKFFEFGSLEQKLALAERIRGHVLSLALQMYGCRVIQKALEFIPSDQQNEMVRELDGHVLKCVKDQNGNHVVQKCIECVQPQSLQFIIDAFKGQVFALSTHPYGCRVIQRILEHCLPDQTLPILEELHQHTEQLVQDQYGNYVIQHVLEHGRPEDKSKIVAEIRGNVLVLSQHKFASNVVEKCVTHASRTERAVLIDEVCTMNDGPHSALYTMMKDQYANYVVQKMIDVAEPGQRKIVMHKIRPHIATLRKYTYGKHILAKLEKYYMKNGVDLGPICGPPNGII
UniProt Q8N0Z8: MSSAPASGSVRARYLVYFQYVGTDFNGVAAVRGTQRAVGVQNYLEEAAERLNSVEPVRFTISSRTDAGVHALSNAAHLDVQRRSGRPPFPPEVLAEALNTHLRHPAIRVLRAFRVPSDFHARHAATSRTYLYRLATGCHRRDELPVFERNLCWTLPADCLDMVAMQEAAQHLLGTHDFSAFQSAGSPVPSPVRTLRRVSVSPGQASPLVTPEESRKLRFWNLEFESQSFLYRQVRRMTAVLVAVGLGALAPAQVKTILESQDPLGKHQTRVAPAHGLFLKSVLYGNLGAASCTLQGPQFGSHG
UniProt P40306: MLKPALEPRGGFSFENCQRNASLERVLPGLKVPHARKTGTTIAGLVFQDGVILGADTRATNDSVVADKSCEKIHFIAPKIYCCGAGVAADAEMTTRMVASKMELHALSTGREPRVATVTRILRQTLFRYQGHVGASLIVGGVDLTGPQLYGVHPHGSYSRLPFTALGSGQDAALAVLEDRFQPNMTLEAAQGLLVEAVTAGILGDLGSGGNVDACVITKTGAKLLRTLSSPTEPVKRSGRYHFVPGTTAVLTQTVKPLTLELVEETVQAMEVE
UniProt O75365, whole entry, looked up: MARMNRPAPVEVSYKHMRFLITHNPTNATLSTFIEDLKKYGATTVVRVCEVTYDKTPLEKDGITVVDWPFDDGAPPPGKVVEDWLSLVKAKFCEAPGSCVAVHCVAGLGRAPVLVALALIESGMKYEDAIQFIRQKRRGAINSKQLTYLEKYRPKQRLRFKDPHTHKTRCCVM
UniProt P28074: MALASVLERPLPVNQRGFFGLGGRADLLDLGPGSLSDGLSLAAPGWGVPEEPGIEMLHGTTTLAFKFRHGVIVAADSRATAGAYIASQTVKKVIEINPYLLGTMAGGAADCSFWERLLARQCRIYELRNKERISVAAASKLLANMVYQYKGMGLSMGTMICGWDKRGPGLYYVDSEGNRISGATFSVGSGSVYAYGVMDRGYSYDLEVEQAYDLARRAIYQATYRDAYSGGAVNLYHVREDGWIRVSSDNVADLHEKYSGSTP
UniProt P28062: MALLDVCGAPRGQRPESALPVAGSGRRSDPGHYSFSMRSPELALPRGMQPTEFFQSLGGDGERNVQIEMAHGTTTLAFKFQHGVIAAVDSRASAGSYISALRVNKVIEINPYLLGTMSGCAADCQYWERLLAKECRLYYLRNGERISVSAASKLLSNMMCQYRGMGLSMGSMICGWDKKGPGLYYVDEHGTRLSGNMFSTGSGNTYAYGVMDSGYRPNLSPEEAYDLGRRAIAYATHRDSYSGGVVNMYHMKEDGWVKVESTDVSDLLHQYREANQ
UniProt Q9Y3T6: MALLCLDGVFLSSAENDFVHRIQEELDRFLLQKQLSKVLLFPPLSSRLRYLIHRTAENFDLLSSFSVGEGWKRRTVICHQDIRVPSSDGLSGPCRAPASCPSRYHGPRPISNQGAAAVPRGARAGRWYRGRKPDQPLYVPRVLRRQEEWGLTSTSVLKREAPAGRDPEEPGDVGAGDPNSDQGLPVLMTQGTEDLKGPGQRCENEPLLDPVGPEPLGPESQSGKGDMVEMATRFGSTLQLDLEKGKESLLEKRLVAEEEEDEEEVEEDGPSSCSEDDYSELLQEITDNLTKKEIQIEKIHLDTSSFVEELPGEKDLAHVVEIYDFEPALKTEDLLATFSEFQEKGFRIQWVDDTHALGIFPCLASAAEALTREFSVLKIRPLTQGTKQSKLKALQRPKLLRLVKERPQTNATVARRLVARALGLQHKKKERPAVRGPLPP
UniProt Q9ULZ3, whole entry, looked up: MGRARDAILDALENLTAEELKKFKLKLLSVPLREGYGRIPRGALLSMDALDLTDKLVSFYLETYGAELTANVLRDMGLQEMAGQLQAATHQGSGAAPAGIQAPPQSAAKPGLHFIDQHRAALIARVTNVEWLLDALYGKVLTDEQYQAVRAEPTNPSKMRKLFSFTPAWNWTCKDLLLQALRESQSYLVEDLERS
UniProt Q7Z5L2: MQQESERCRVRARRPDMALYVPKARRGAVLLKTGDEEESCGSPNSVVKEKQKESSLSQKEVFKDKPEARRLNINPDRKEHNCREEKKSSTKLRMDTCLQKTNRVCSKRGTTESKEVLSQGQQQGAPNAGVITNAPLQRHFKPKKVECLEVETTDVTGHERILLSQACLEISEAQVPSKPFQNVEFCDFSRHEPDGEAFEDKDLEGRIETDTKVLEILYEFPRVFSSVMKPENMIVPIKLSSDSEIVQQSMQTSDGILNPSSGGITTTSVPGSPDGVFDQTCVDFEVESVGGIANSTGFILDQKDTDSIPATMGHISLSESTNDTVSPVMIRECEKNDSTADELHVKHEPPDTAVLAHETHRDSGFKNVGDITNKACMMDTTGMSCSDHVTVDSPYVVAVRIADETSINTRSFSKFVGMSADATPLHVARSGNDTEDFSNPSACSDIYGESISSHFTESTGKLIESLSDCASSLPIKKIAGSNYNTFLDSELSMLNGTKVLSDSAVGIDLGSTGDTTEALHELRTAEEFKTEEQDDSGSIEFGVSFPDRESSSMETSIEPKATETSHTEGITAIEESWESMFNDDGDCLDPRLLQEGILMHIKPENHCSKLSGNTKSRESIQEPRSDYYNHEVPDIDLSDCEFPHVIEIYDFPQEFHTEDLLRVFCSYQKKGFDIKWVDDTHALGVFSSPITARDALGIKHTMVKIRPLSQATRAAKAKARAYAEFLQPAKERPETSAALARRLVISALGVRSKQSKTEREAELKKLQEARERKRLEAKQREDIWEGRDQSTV
UniProt P15151: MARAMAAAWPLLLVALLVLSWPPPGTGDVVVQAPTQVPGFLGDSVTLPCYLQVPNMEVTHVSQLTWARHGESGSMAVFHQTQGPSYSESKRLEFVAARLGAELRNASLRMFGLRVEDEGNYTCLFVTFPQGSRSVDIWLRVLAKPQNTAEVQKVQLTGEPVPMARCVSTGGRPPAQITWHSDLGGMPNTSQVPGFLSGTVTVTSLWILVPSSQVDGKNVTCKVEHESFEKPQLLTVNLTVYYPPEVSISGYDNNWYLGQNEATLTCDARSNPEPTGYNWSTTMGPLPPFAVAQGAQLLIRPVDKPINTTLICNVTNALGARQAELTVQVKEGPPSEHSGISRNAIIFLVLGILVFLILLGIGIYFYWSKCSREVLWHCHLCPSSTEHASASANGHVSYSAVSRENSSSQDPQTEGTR

[1] = compound: C/C(=N\NC(=O)C1=CC(=CC=C1)S(=O)(=O)N2CCOCC2)/C3=C(C=CC(=C3)Cl)O
Method in brief: as §1

[2] = compound: C1=CC(=CC=C1C2=NC3=C(N2)C=C(C=C3)C(=O)N)OC4=CC=C(C=C4)Cl
Method in brief: as §1

[3] = compound: C1=CC2=C(C=CC(=C2)/C=C\3/C(=O)NC(=NCC4=CC=CS4)S3)N=C1
Method in brief: as §1

[4] = compound: C1=CC2=NC=CN=C2C=C1/C=C/3\C(=O)NC(=O)S3
Method in brief: as §1

[5] = compound: C1=CC=C(C=C1)C2=NC(=C(N2)C3=CC=NC=C3)C4=CC(=C(C=C4)Cl)O
Method in brief: as §1

[6] = compound: C1=CC=C2C(=C1)C3=NNC4=CC=CC(=C43)C2=O
Method in brief: as §1

[7] = compound: C1CCN(C1)C(=O)NC2=CC=CC(=C2)NC3=NC=C(C(=N3)NCCC4=CN=CN4)Br
Method in brief: as §1

[8] = compound: C1CN(CCC1(CC2=CC=C(C=C2)Cl)N)C3=NC=NC4=C3C=CN4
Method in brief: as §1

IRAK-1-4 Inhibitor I = compound: C1COCCN1CCN2C3=CC=CC=C3N=C2NC(=O)C4=CC(=CC=C4)[N+](=O)[O-] [IRAK-1-4 Inhibitor I]
Method in brief: as §1

ibrutinib = compound: C=CC(=O)N1CCC[C@@H](n2nc(-c3ccc(Oc4ccccc4)cc3)c3c(N)ncnc32)C1 [ibrutinib]
Method in brief: as §1

[9] = compound: CC(=O)c1cnc2ccc(-c3cc(Cl)c(O)c(Cl)c3)nc2c1N[C@H]1CC[C@H](CN(C)C)CC1
Method in brief: as §1

ralimetinib = compound: CC(C)(C)Cn1c(N)nc2ccc(-c3[nH]c(C(C)(C)C)nc3-c3ccc(F)cc3)nc21 [ralimetinib]
Method in brief: as §1

[10] = compound: CC(C)C1=C2N=C(C=C(N2N=C1)NCC3=CC=CC=C3)NCCCCCCN
Method in brief: as §1

[11] = compound: CC(C)C[C@@H](C=O)NC(=O)[C@H](CC(C)C)NC(=O)[C@H](CC(C)C)NC(=O)OCc1ccccc1
Method in brief: as §1

pinometostat = compound: CC(C)N(C[C@H]1O[C@@H](n2cnc3c(N)ncnc32)[C@H](O)[C@@H]1O)[C@H]1C[C@@H](CCc2nc3cc(C(C)(C)C)ccc3[nH]2)C1 [pinometostat]
Method in brief: as §1

[12] = compound: CC1=C(C(CC(=O)N1)C2=CC=C(C=C2)C(F)(F)F)C(=O)NC3=C(C=C4C(=C3)C=NN4)F
Method in brief: as §1

[13] = compound: CC1=C(C2=C(C=C1)C(=O)C3=CC=CC=C3N2CCCN)C
Method in brief: as §1

[14] = compound: C1=CC(=C(C=C1Cl)C2=NC3=NC=CN=C3C(=N2)NC4=CC=NC=C4)F
Method in brief: as §1

[15] = compound: CC(C)(O)CC(=O)NCCn1ccc2ncnc(Nc3ccc(Oc4cccc(C(F)(F)F)c4)c(Cl)c3)c21
Method in brief: as §1

Measured: log2 fold change

R3HDM1 isoform 2 (UniProt Q15032)
inactive: erlotinib -0.021 | [1] 0.133 | [2] -0.058 | [3] 0.233 | [4] 0.031 | [5] -0.158 | [6] 0.044 | [7] 0.013 | [8] 0.162 | IRAK-1-4 Inhibitor I 0.053 | ibrutinib -0.084 | [9] -0.184 | ralimetinib 0.028 | [10] -0.024 | [11] 0.06 | pinometostat 0.005 | [12] -0.029 | [13] 0.112

PTGER3 isoform 2 (UniProt P43115)
inactive: erlotinib 0.063 | [1] -0.055 | [2] 0.24 | [3] 0.162 | [5] -0.011 | [6] 0.315 | IRAK-1-4 Inhibitor I -0.126 | [9] 0.148 | ralimetinib -0.618 | [10] -0.1 | [11] -0.007 | pinometostat 0.396

PTRH1 (UniProt Q86Y79)
inactive: [1] -0.033 | [3] 0.013 | [5] 0.118 | [6] -0.016 | IRAK-1-4 Inhibitor I -0.055 | [9] -0.145 | ralimetinib 0.17 | [11] -0.037 | pinometostat 0.037

PUF60 isoform 2 (UniProt Q9UHX1)
inactive: [1] 0.242 | [3] -0.242 | [4] 0.086 | [5] 0.05 | [6] 0.046 | [7] -0.148 | [8] -0.148 | ibrutinib 0.035 | [9] -0.329 | ralimetinib 0.25 | [11] -0.203 | [13] -0.052

PURG (UniProt Q9UJV8)
inactive: [14] -0.514 | [15] 0.483 | [12] -0.053

PSMD4 (UniProt Q5VWC4)
inactive: [1] -0.07 | [14] 0.042 | [3] -0.07 | [4] 0.045 | [6] -0.044 | IRAK-1-4 Inhibitor I -0.058 | ibrutinib -0.101 | [9] 0.048 | [15] -0.012 | pinometostat 0.022 | [12] -0.084

PSD2 (UniProt Q9BQI7)
inactive: [1] -0.664 | [14] -0.153 | [3] -0.086 | [5] -0.412 | [6] -0.089 | [9] 0.045 | ralimetinib -0.267 | [15] 0.079 | [11] 0.145 | [12] 0.042

PTBP2 isoform 3 (UniProt Q9UKA9)
inactive: erlotinib -0.045 | [2] 0.009 | IRAK-1-4 Inhibitor I 0.035 | [10] 0.02 | pinometostat 0.101

PUM1 (UniProt Q14671)
inactive: erlotinib 0.308 | [1] 0.035 | [2] 0.15 | [3] -0.034 | [6] 0.051 | [7] -0.045 | [8] -0.024 | IRAK-1-4 Inhibitor I 0.101 | [9] -0.038 | [10] -0.226 | pinometostat 0.073 | [13] 0.139

PUSL1 (UniProt Q8N0Z8)
inactive: erlotinib 0.132 | [14] -0.317 | [2] -0.11 | [5] 0.058 | [7] 0.025 | [8] -0.089 | ralimetinib 0.242 | [15] 0.077 | [10] 0.132 | [11] 0.174 | [13] -0.213

PSD3 (UniProt Q9NYI0)
inactive: [1] -0.022 | [3] 0.1 | [5] -0.001 | [6] 0.018 | IRAK-1-4 Inhibitor I 0.014 | [9] -0.024 | ralimetinib -0.026 | [11] -0.055 | pinometostat -0.037

PSMB2, A0A087WVV1
inactive: erlotinib 0.335 | [1] 0.071 | [2] 0.028 | [3] -0.089 | [4] 0.042 | [5] 0.02 | [6] 0.072 | IRAK-1-4 Inhibitor I -0.174 | ibrutinib -0.076 | [9] 0.177 | ralimetinib 0.009 | [10] -0.172 | [11] -0.2 | pinometostat -0.175 | [12] 0.176

PSEN2 (UniProt P49810)
inactive: erlotinib 0.002 | [1] 0.219 | [2] 0.119 | [3] -0.053 | [5] -0.108 | [6] -0.024 | [9] 0.065 | ralimetinib -0.113 | [10] -0.147 | [11] 0.047

PSMD8 (UniProt K7ERW6)
inactive: [7] 0.052 | [8] -0.148 | IRAK-1-4 Inhibitor I 0.018 | pinometostat 0.001 | [13] 0.037

PSMB10 (UniProt P40306)
inactive: [1] -0.093 | [3] 0.212 | [6] -0.023 | [9] -0.233 | [12] -0.028

Taken from the entries so far (2 entries):
PUSL1 (UniProt Q8N0Z8)
inactive: erlotinib 0.132 | [14] -0.317 | [2] -0.11 | [5] 0.058 | [7] 0.025 | [8] -0.089 | ralimetinib 0.242 | [15] 0.077 | [10] 0.132 | [11] 0.174 | [13] -0.213

PSD3 (UniProt Q9NYI0)
inactive: [1] -0.022 | [3] 0.1 | [5] -0.001 | [6] 0.018 | IRAK-1-4 Inhibitor I 0.014 | [9] -0.024 | ralimetinib -0.026 | [11] -0.055 | pinometostat -0.037

(listing goes on)

PSMA3 (UniProt H0YJ03)
active: [1] -0.698
inactive: [3] 0.095 | [5] -0.065 | [6] -0.006 | [7] -0.027 | [8] 0.2 | IRAK-1-4 Inhibitor I 0.023 | [9] 0.052 | ralimetinib 0.14 | [11] 0.067 | pinometostat 0.061 | [13] 0.046

PTPN7 isoform 3 (UniProt P35236)
inactive: erlotinib 0.088 | [2] -0.208 | [5] 0.061 | ralimetinib 0.375 | [10] -0.261 | [11] 0.274

PTP4A3 (UniProt O75365)
inactive: [4] -0.041 | ibrutinib 0.079

PTPRJ (UniProt Q12913)
inactive: [14] -0.152 | [15] -0.129

PSMB5 isoform 3 (UniProt P28074)
inactive: [1] -0.287 | [14] -0.153 | [3] 0.172 | [4] 0.045 | [5] -0.12 | [6] -0.218 | [7] 0.225 | [8] 0.204 | ibrutinib -0.058 | [9] -0.154 | ralimetinib -0.205 | [15] -0.194 | [11] 0.34 | [13] 0.144

PSMA3 (UniProt G3V4X5)
active: [11] 0.733
inactive: [4] 0.051 | [5] 0.348 | IRAK-1-4 Inhibitor I -0.451 | ibrutinib -0.065 | ralimetinib -0.114 | pinometostat -0.001

PSEN1 (UniProt P49768)
inactive: [14] 0.023 | [4] 0.119 | [5] -0.021 | [7] 0.051 | [8] 0.003 | IRAK-1-4 Inhibitor I 0.014 | ibrutinib -0.076 | ralimetinib -0.039 | [15] -0.079 | [11] -0.012 | pinometostat -0.005 | [12] -0.033 | [13] 0.109

PSMB8 (UniProt P28062)
inactive: erlotinib -0.001 | [1] 0.075 | [2] -0.003 | [3] 0.001 | [6] -0.114 | IRAK-1-4 Inhibitor I -0.055 | [9] -0.336 | [10] -0.047 | pinometostat -0.028 | [12] -0.202

R3HCC1 (UniProt Q9Y3T6)
inactive: erlotinib 0.103 | [1] -0.193 | [2] -0.071 | [3] 0.004 | [5] -0.032 | [6] -0.118 | [7] -0.109 | [8] -0.066 | IRAK-1-4 Inhibitor I -0.028 | [9] 0.063 | ralimetinib -0.378 | [10] -0.106 | [11] 0.132 | pinometostat -0.019 | [12] -0.033 | [13] 0.155

PYCARD isoform 2 (UniProt Q9ULZ3)
inactive: erlotinib -0.222 | [2] 0.227 | [5] 0.005 | IRAK-1-4 Inhibitor I -0.124 | ralimetinib 0.003 | [10] -0.054 | [11] 0.075 | pinometostat 0.017

R3HCC1L (UniProt Q7Z5L2)
inactive: erlotinib -0.159 | [1] -0.1 | [2] 0.03 | [3] -0.016 | [6] 0.11 | [7] 0.401 | [8] -0.078 | [9] 0.066 | [10] -0.046 | [12] -0.291 | [13] 0.116

PSMC3 (UniProt E9PLG2)
inactive: [14] -0.437 | [4] 0.151 | [7] 0.27 | [8] -0.045 | IRAK-1-4 Inhibitor I -0.064 | ibrutinib -0.051 | [15] 0.167 | pinometostat -0.1 | [13] -0.155

PSIP1 (UniProt V9GYT7)
inactive: [5] 0.052 | [7] 0.024 | [8] -0.054 | IRAK-1-4 Inhibitor I 0.182 | ralimetinib 0.118 | [11] 0.036 | pinometostat 0.016 | [12] 0.042 | [13] 0.137

PTEN isoform 2 (UniProt P60484)
active: [10] -0.629
inactive: erlotinib 0.264 | [2] 0.061 | [5] 0.178 | IRAK-1-4 Inhibitor I -0.227 | ralimetinib 0.062 | [11] 0.083 | pinometostat -0.006

PVR (UniProt P15151)
inactive: [1] 0.123 | [14] 0.054 | [3] -0.034 | [4] 0.055 | [6] -0.074 | [7] -0.052 | [8] 0.036 | ibrutinib 0.048 | [9] -0.088 | [15] 0.047 | [13] 0.011

PSMC1 (UniProt G3V4X1)
inactive: erlotinib 0.149 | [2] -0.001 | [10] -0.089
